Positions count from the first letter of the chain named. Results are given in words; binding and its absence hold for the method and conditions named. For part of these data: Binding calls can cover weak binding; strength is not graded here. For part of these data: Sequences can lack the tags named with a protein.
What was measured:
[1] = target: T1, FUNDC1(1–50)-GST (human) (UniProt Q8IVP5); assay: microscopy-based bead assay; GST-tagged bait on Glutathione Sepharose 4B beads, GFP- or mCherry-tagged prey in solution, confocal imaging; both purified
T1 sequence: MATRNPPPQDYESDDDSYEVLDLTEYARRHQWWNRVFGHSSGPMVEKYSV

Sequences of proteins named here, by UniProt entry; tags and fusion partners are left off. A change or cut given only in a name is not applied to a line headed by its entry. Residues count along the entry.
UniProt Q9Y6I9, residues 28-313: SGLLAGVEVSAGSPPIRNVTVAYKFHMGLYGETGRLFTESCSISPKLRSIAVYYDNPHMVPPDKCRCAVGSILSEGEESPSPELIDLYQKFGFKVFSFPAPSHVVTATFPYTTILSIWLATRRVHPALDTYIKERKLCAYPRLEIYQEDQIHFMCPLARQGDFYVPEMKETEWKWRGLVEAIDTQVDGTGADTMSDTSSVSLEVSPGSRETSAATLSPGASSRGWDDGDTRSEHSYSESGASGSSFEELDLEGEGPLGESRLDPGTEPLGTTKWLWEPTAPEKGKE
UniProt O60238, residues 1-182: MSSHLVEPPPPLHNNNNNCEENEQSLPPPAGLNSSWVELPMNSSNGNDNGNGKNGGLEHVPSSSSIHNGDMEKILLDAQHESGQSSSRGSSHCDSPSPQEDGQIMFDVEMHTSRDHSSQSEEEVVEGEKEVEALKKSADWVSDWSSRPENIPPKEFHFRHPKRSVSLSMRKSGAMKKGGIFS
UniProt Q86VR2, residues 250-466: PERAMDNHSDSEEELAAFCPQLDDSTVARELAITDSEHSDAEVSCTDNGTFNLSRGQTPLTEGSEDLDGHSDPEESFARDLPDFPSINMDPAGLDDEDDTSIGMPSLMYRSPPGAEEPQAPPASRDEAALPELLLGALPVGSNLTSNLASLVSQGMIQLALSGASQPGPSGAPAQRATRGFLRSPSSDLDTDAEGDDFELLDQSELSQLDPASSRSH
UniProt Q14318, residues 1-391: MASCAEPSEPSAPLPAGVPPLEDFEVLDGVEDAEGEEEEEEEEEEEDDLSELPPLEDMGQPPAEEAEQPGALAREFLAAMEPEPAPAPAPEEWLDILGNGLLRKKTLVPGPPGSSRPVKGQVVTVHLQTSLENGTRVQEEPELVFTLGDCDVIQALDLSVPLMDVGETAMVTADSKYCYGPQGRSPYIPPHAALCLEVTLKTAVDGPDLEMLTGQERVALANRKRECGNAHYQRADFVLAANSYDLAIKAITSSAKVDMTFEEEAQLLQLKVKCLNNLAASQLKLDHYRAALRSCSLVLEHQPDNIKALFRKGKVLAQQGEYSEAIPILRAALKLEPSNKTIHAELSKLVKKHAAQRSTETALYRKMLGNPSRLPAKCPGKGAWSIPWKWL
UniProt Q9BXK5, residues 1-465: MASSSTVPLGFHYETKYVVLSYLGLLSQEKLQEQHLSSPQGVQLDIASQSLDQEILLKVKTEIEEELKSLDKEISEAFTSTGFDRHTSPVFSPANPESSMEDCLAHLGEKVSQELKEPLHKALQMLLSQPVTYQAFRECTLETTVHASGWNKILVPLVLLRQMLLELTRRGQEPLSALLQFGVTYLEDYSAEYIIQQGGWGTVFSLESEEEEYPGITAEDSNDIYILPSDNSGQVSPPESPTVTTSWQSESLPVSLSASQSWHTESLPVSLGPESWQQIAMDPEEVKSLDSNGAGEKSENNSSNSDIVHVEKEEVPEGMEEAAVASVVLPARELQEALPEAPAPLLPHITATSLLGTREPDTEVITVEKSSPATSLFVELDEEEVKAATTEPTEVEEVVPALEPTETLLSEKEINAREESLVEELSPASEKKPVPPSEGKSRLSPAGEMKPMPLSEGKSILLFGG

[2] = target: GST-TEX264 (residues 28–313) (human) (UniProt Q9Y6I9); assay: as above
[3] = target: T2, FUNDC1 Y18A/L21A (ΔLIR)-GST (human) (UniProt Q8IVP5); assay: as above
T2 sequence: T1 sequence with Y18A, L21A

[4] = target: NIX(1–182)-GST (human) (UniProt O60238); assay: as above
[5] = target: GST-FAM134C (residues 250–466) (human) (UniProt Q86VR2); assay: as above
[6] = target: FKBP8 (residues 1–391)-GST (human) (UniProt Q14318); assay: as above
[7] = target: BCL2L13-GST with mutated LIR/FIR motifs (human) (UniProt Q9BXK5); assay: as above
[8] = target: BCL2L13(1–465)-GST (human) (UniProt Q9BXK5); assay: as above
[9] = target: T3, CCPG1 (residues 1–212)-GST (human) (UniProt Q9ULG6); assay: as above
T3 sequence: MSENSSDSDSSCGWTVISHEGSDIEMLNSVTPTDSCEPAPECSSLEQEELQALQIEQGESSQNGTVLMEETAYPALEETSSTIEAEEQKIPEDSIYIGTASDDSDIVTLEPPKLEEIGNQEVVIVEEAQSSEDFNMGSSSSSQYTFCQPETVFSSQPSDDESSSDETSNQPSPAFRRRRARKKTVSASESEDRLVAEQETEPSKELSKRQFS

[10] = target: T1, FUNDC1(1–50)-GST (human); assay: microscopy-based bead assay; GST-tagged cargo receptors on beads, GFP-tagged FIP200-CTR or full-length FIP200 in solution, in the presence of lambda protein phosphatase; both purified
[11] = target: NIX(1–182)-GST (human) (UniProt O60238); assay: as above
[12] = target: BCL2L13(1–465)-GST (human) (UniProt Q9BXK5); assay: as above
[13] = target: GST-TEX264 (residues 28–313) (human) (UniProt Q9Y6I9); assay: microscopy-based bead assay; agarose beads coated with GST-tagged TEX264 or FKBP8, incubated with GFP-tagged FIP200 C-terminal region and mCherry-tagged WIPI2d together; both purified
[14] = target: FKBP8 (residues 1–391)-GST (human) (UniProt Q14318); assay: as above
[15] = target: T1, FUNDC1(1–50)-GST (human); assay: microscopy-based bead assay; GST-tagged cargo receptors on beads, GFP-tagged FIP200-CTR or full-length FIP200 in solution, with the kinases TBK1, MBP-ULK1, CK2 or Src (Y530F) and ATP/MgCl2; both purified
[16] = target: NIX(1–182)-GST (human) (UniProt O60238); assay: as above
[17] = target: BCL2L13(1–465)-GST (human) (UniProt Q9BXK5); assay: as above

Row | binding [1] | binding [2] | binding [3] | binding [4] | binding [5] | binding [6] | binding [7] | binding [8] | binding [9] | binding [10] | binding [11] | binding [12] | binding [13] | binding [14] | binding [15] | binding [16] | binding [17] | Substance
1 | binds | binds | no binding | no binding | binds | binds | no binding | binds | binds | binds | no binding | binds | binds | binds | binds | no binding | binds | GFP-FIP200 C-terminal region (CTR), residues 1429–1591 (from UniProt Q8TDY2-2) (domain or fragment)
2 |  |  |  |  |  |  |  |  | no binding |  |  |  |  |  |  |  |  | mCherry–WIPI2d

Reference: article PMC12339401
